This passage reports binding signal results from paper PMC7819943, “Rice protein-binding microarrays: a tool to detect cis-acting elements near promoter regions in rice”.

The list shows a part of the results.

This assay has as its target T1, OsSMF1 (Oryza sativa, UniProt Q6ZLB0 1-436).
T1 sequence: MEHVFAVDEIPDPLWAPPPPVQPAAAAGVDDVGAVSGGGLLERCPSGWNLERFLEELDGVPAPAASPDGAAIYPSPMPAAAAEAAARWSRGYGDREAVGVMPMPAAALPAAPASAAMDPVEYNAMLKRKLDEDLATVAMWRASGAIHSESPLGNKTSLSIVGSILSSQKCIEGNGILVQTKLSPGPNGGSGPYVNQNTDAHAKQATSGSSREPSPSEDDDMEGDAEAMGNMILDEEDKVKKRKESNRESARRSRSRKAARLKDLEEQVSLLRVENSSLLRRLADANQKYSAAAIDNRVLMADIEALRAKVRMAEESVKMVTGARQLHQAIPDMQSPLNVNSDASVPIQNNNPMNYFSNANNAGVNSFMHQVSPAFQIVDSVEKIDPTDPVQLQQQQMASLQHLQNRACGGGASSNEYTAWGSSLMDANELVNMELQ
Kind of assay: protein-binding microarray (RPBM); PBS, 2% BSA, 51.3 ng/ul salmon testes DNA, 50 uM zinc acetate, 200 nM TF, 25 C, 1 h; high values mean tight binding. Particulars: protein: recombinant; tags: N-terminal polyhistidine and DsRed monomer fusion (pET32a); chain copies: 2; label: CyDye5-dUTP incorporated in the synthesized complementary strand; 3' TTTTT single-stranded linker to array surface; dsDNA, one strand shown. Put shortly:
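The binding signal is fluorescence intensity per array feature (arbitrary units). Readings came from an Axon 4000B scanner after a washed, 2% BSA-blocked, double-stranded custom Agilent array had been incubated for 1 h at 25 °C with 200 nM protein and 50 µM zinc acetate. The protein was a Ni–NTA-purified transcription factor fused N-terminally to polyhistidine and DsRed, expressed in E. coli BL21-CodonPlus.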
Consider “AGGCTCCTACTGTGATATATTAATATATAATAAAGAACAACGGAGTCACCTAGTGCAG”, for which the binding signal was 13000 fluorescence intensity (a.u.).
Take “ACTGTAATAGTGTCATACTATGATGGGATTACATTGGACGCGGAGTCACCTAGTGCAG”: the binding signal was 3300 fluorescence intensity (a.u.).
Regarding “GTGGGGCCTGGCTGCGATGTGTCGATGTGACAGCAACAGCCGGAGTCACCTAGTGCAG”, the binding signal was 3380 fluorescence intensity (a.u.).
Then “GAGAGGCTGATCCGGTCGTCCCTGCGCATCAGCGTGGGCGCGGAGTCACCTAGTGCAG”, with 3200 fluorescence intensity (a.u.); and “GTCTGCAACACGAAATGTAATGTTGACACGCAAATGCTAGCGGAGTCACCTAGTGCAG”, with 3420 fluorescence intensity (a.u.).
For “ACAACCCCACCACGTGGCGTAAATACACGTCGAGGCGAGGCGGAGTCACCTAGTGCAG” the value was 12500 fluorescence intensity (a.u.).
Consider “CCACATGTCATTGTCACCTCCTAATTAACCCCGAAGGCAACGGAGTCACCTAGTGCAG”, for which the binding signal was 3490 fluorescence intensity (a.u.).
Then “GGCAGTTTAACTAGATATTTAAAACTCTGCTATATATACGCGGAGTCACCTAGTGCAG”, with 23700 fluorescence intensity (a.u.); and “GCGCCCATCCCTCGTCGGCTCGTCGCTGAATCTGATGGATCGGAGTCACCTAGTGCAG”, with 3300 fluorescence intensity (a.u.); and “GCAAGATAATACACCACCTGTCAGTCATAGCTGTCCCCAGCGGAGTCACCTAGTGCAG”, with 3520 fluorescence intensity (a.u.).
“GGAAAGTGGACAATTAAATCAAGCGATGATGTGGATGTGGCGGAGTCACCTAGTGCAG”: the binding signal is 5830 fluorescence intensity (a.u.).
Then “AGAGGGAGGAGGAAGAAGGTCTGACATGTGGGCCCCACATCGGAGTCACCTAGTGCAG”, with 3230 fluorescence intensity (a.u.).
Then “CATGGCAGCAGCATTCTTTCGTTTTCGTGCAGCATTGTCACGGAGTCACCTAGTGCAG”, with 28300 fluorescence intensity (a.u.).
For “AGTATCTCGAAACAAAGAGAGTAACATACATAATCATCCTCGGAGTCACCTAGTGCAG”, the binding signal is 28300 fluorescence intensity (a.u.).
For “AGAGACCATGAAAGACTTAGCCACGACATCGTCCAACATGCGGAGTCACCTAGTGCAG”, the binding signal was 4620 fluorescence intensity (a.u.).
In the case of “GCTCCGCCGGTTCGCCTTCGACAGCATCTGCCACGTCGCGCGGAGTCACCTAGTGCAG”, the binding signal was 9720 fluorescence intensity (a.u.).
For “TCATTGCCGTGGTCCACGCGTCGCACGACTGAGTACCGTGCGGAGTCACCTAGTGCAG” the value was 4850 fluorescence intensity (a.u.); for “TCTCCGAGAGGATTAGGCAATGACCGGGGAGAAGCAACGCCGGAGTCACCTAGTGCAG”, 3450 fluorescence intensity (a.u.).
For “GCGCTATATATACGCACGGCTAGTCAGCCTCCTGTGCCACCGGAGTCACCTAGTGCAG” the value was 3800 fluorescence intensity (a.u.).
In the case of “GCATGTTCAGGTCGAAGCACGCCACGCAGCCGTGGCAGACCGGAGTCACCTAGTGCAG”, the binding signal is 6240 fluorescence intensity (a.u.).
On to “GGCTTCTCCGGCGCCGCGACACGGACACCGAGGCGACGGCCGGAGTCACCTAGTGCAG”, for which the binding signal was 3170 fluorescence intensity (a.u.).
Turning to “TCTTTAGTCCCGGTTCCTATTTAAACCGGGATTATTGTGGCGGAGTCACCTAGTGCAG”, the binding signal was 47900 fluorescence intensity (a.u.).
Turning to “CTTCGTATGGTTCAAATCCTCTGCCTTAATGACACCACTGCGGAGTCACCTAGTGCAG”, the binding signal was 3160 fluorescence intensity (a.u.).
